From PMC11932694
Results are given in words; binding and its absence hold for the method and conditions named. Binding seen in cells or lysates may run through a third protein. Some binding calls cover weakened binding; strength is not graded here. Sequences can lack the tags named with a protein.

Chains of the proteins cited; added tags and fusions are not shown.
UniProt Q14694: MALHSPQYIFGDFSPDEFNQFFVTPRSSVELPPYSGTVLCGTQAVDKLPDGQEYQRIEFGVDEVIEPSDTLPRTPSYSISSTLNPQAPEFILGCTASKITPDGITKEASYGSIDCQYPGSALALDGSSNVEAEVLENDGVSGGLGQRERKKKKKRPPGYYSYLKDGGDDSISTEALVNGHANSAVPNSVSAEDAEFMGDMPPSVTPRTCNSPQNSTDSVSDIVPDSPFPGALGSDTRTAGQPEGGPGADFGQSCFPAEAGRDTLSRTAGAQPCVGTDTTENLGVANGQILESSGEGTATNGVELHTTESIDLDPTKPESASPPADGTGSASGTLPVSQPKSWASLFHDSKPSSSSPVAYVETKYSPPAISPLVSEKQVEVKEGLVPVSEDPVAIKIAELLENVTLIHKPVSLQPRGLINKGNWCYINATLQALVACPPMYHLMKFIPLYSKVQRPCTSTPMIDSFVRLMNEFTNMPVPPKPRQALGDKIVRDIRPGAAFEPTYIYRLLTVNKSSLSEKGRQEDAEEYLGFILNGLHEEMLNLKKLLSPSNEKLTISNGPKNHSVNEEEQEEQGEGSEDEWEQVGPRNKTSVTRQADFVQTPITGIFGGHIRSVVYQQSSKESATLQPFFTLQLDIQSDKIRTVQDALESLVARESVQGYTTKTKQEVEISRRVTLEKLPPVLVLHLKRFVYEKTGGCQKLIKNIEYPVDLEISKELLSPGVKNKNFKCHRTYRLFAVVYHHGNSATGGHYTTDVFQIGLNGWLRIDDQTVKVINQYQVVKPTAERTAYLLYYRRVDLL

Experiments:
Assay in all cases: co-IP; HEK293T cells co-transfected with a Flag-tagged protein and GFP-tagged ORMDL3 (whole or truncated); lysates immunoprecipitated with anti-Flag antibody and protein A/G beads, blots with anti-GFP and anti-Flag; in Figure 5B with or without poly(I:C) co-transfection
Flag-IKBKE = molecular target: T1, Flag-IKBKE (UniProt Q14164)
T1 sequence: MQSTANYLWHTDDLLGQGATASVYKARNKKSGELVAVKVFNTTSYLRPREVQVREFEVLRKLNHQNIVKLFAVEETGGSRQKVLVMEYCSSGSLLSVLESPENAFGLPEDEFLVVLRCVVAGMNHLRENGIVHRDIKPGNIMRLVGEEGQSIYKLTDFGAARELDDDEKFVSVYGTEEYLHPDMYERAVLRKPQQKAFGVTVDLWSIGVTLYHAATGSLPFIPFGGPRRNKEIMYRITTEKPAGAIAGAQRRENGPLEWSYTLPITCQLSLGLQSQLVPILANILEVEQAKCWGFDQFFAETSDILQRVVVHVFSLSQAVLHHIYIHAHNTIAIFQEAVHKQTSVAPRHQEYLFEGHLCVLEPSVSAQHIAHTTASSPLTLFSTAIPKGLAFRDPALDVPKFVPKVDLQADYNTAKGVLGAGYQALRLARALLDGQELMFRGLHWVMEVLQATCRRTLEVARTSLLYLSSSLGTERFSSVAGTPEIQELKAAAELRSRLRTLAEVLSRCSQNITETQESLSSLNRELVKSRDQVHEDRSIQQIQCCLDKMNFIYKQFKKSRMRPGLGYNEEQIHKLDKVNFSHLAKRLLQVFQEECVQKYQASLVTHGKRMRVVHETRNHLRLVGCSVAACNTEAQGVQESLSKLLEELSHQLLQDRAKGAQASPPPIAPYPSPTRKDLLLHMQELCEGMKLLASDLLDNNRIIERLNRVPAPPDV

Flag-IRF3 = molecular target: T2, Flag-IRF3 (UniProt Q14653)
T2 sequence: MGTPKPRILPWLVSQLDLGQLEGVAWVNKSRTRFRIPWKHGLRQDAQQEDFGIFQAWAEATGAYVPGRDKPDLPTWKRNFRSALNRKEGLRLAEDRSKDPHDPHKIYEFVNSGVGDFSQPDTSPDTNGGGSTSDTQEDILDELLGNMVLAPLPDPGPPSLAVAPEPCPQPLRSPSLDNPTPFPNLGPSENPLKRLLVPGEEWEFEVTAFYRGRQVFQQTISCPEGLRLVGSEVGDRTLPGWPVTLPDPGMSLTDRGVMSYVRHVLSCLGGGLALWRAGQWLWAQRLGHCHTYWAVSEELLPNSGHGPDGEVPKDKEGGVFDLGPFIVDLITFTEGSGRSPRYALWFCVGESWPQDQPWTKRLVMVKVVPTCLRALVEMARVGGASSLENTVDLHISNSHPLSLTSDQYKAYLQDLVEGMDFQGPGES

Flag-RIG-I (human) = molecular target: T3, Flag-RIG-I (human) (UniProt O95786)
T3 sequence: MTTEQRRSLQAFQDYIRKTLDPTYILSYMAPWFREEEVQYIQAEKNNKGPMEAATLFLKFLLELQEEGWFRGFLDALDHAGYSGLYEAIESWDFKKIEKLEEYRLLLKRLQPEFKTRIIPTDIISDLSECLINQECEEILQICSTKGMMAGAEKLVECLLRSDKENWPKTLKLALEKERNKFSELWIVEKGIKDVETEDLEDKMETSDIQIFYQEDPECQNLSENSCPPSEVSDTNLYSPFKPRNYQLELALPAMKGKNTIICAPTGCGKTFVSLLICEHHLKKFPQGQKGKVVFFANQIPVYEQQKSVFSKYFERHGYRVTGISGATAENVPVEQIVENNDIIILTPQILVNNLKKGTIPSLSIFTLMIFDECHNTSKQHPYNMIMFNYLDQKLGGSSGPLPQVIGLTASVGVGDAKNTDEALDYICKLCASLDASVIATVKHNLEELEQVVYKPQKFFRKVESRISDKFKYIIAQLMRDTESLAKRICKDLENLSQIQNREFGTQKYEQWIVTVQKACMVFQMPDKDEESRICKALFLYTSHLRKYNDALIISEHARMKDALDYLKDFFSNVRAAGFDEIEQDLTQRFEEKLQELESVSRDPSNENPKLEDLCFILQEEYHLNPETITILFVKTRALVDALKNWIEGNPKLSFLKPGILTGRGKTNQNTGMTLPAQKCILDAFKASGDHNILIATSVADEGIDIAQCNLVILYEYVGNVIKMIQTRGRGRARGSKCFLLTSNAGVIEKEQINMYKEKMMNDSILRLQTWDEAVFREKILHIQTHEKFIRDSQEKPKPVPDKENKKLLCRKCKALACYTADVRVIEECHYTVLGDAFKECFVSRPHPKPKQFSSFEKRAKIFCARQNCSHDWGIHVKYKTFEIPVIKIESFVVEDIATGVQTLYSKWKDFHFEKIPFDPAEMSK

Flag-USP10 = Flag-USP10 (UniProt Q14694)

B1: ORMDL3-GFP (protein, UniProt Q8N138 1-153)
chain: MNVGTAHSEVNPNTRVMNSRGIWLSYVLAIGLLHIVLLSIPFVSVPVVWTLTNLIHNMGMYIFLHTVKGTPFETPDQGKARLLTHWEQMDYGVQFTASRKFLTITPIVLYFLTSFYTKYDQIHFVLNTVSLMSVLIPKLPQLHGVRIFGINKY
Which binding (Flag-IKBKE) does the source give for B1 here?
The binding was “no binding”.

And the binding (Flag-IRF3)?
The binding was “no binding”.

What about the binding (Flag-RIG-I (human)) of the same binder?
Its binding is “no binding”.

And the binding (Flag-USP10)?
The binding was “binds”.
